# Data reported in PubChem BioAssay AID590 (National Center for Advancing Translational Sciences (NCATS), 2007).
# Out of some 59,000 compounds screened, about 6,500 (11%) were called active. The inconclusive results got no clear call from the source; some entries with a clear call stand among them for comparison. Rule as the data show it: active = max dye-equivalent concentration above about 10 nM; inconclusive = mostly about 1.1 nM to 9.6 nM; inactive = weaker than that.
# Test: qHTS Assay for Spectroscopic Profiling in A350 Spectral Region
# Conditions: Compound autofluorescence, 340/450 nm, Alexa 350 dye-equivalents; stronger effect = higher value
row,Compound,max dye-equivalent concentration
1,O=C(CSc1nnc(CCCO)n1-c1ccccc1)NCCc1ccccc1,inconclusive: 2 nM
2,NC(=O)C1CCN(Cc2nc(-c3ccccc3)no2)CC1,inconclusive: 1.8 nM
3,COc1ccc2c(c1)c(=O)oc1cc(OCC(=O)N3CCCC(C)C3)ccc12 (configuration not stated),active: 830 nM
4,CC1CCC(NC(=O)c2ccc(N3CCCC3=O)cc2)CC1 (configuration not stated),inconclusive: 1.8 nM
5,N#C/C(C(=O)N1CCCCC1)=C1\Nc2ccccc2S1,inactive
6,Clc1ccccc1-c1nnc2sc(-c3ccc4c(c3)OCO4)nn12,inconclusive: 5.4 nM
7,O=C(NCc1cccnc1)c1cc(-c2ccco2)on1,inactive
8,COC(=O)C(Cc1ccc(O)cc1)NC(=O)CCC(=O)Nc1ccc(S(N)(=O)=O)cc1 (configuration not stated),inconclusive: 1.2 nM
9,CN1CCCN(C)C1c1cc([N+](=O)[O-])ccc1O,inactive
10,COc1cc(C2c3c(oc4ccccc4c3=O)C(=O)N2Cc2ccncc2)ccc1O (configuration not stated),inconclusive: 1.9 nM
11,Cc1oc2c(CN3CCCC3)c(O)ccc2c(=O)c1-c1ccc(Br)cc1,active: 5500 nM
12,C[C@H](C(=O)O)c1cccc(Oc2ccccc2)c1,inconclusive: 1.1 nM
13,Cc1ccc(CC(=O)Nc2cccc(C)n2)cc1,inconclusive: 2.8 nM
14,O=c1c(C/C=C/c2ccccc2)c(O)nc2n1CCCS2,inconclusive: 1.7 nM
15,COCCn1c(=O)c(-c2cccs2)nc2cnc(N(C)C)nc21,inconclusive: 1.4 nM
16,CCN(c1ccccc1)S(=O)(=O)c1ccc2[nH]cc(C(=O)NCCOC)c(=O)c2c1,inconclusive: 3 nM
17,CCOC(=O)c1[nH]c2ccccc2c1NC(=O)c1ccco1,inconclusive: 1.2 nM
18,O=C1NCC(COCc2ccco2)O1 (configuration not stated),inconclusive: 1.4 nM
19,CCOc1cc(/C=C(/C#N)c2ccc(F)cc2)ccc1OCc1ccc(C(=O)O)o1,inconclusive: 3.7 nM
20,Cc1nc(N2CCN(c3ccccc3)CC2)nc2c1C(=O)CC(c1ccccc1)C2 (configuration not stated),inconclusive: 3 nM
21,CCOC(=O)C1=C(C)NC(SCC(N)=O)=C(C#N)C1c1ccncc1 (configuration not stated),active: 88 nM
22,CCOC(=O)N1CCOCCOCCN(C(=O)OCC)CCOCC1,inconclusive: 4.8 nM
23,COc1ccccc1NC(=O)Cn1c(=O)oc2ccccc21,inconclusive: 1.8 nM

row,Compound,max dye-equivalent concentration
1,CCCC(=O)Nc1ccc2oc(-c3ccc(OC)c(Br)c3)nc2c1,inconclusive: 9 nM
2,CS(=O)(=O)N(Cc1ccccc1)c1ccc(C(=O)N2CCOCC2)cc1,inconclusive: 1.1 nM
3,CC1CCC/C(=C\Nc2ccc3c(c2)OCO3)C1=O (configuration not stated),inconclusive: 4.3 nM
4,CCOC(=O)C1CCN(Cc2coc3ccc(Cl)cc3c2=O)CC1,inconclusive: 1.2 nM
5,C=CCc1cccc2cc(C(=O)N3CCN(C(=O)OCC)CC3)c(=O)oc12,inconclusive: 6.9 nM
6,CCc1nc(NCCN2CCOCC2)c(C#N)c2c1CCCC2,inconclusive: 3.8 nM
7,CC(C)CN1CC2(CCN(C(=O)c3ccco3)CC2)C1,inactive
8,CC(C)Oc1ccc(NC(=O)C2CCCNC2=O)cc1 (configuration not stated),inactive
9,Cc1c(Cl)cccc1Nc1nc(N)nc(CSCCO)n1,inconclusive: 2 nM
10,Cc1ccc2cc3cc(C(=O)N4CCCCCC4)oc3nc2c1,active: 11 nM
11,Cc1occc1-c1nnc(SCC(=O)NC(=O)NC(C)C)n1N,inactive
12,CCOc1ccc(N2C(=O)c3cccnc3C2Nc2ccc(OC)cc2)cc1 (configuration not stated),inconclusive: 3.3 nM
13,CCOc1ccc(-c2nc(S(=O)(=O)c3ccccc3)c(NCc3cccnc3)o2)cc1,active: 30 nM
14,CCC1Oc2ccccc2N(CC(=O)NCCCN2CCCCC2C)C1=O (configuration not stated),inactive
15,COc1ccc(-c2cc(CCCC(=O)NCCc3ccc(OC)cc3OC)no2)cc1,active: 10 nM
16,COc1ccc(S(=O)(=O)n2nc(OC(=O)c3ccccc3)cc2N)cc1,active: 14 nM
17,Nc1nc2c(s1)CCc1c-2cnn1-c1ccccc1,active: 13 nM
18,CC1CCc2cc(F)ccc2N1C(=O)c1cc2nc(-c3ccco3)cc(C(F)(F)F)n2n1 (configuration not stated),inconclusive: 8.9 nM
19,Cn1cc(-c2nc3cnc(N4CCNCC4)nc3n(C3CC3)c2=O)c2ccccc21,inconclusive: 3.5 nM
20,Clc1ccc(OCc2nnc3n2N=C(c2ccc4c(c2)OCCO4)CS3)c(Cl)c1,inactive
21,O=C(Nc1ccc2nsnc2c1)c1ccc2c(c1)OCO2,active: 11 nM
22,COc1ccc(-c2cc(C(F)(F)F)nc(N3CCN(C)CC3)n2)cc1,inconclusive: 9.8 nM
23,COC(=O)Nc1nnc(CCc2ccccc2)s1,inconclusive: 1.8 nM

row,Compound,max dye-equivalent concentration
1,O=C(NCCN1CCCC1)c1ccc(Cn2c(=S)[nH]c3cc4c(cc3c2=O)OCO4)cc1,inconclusive: 2.5 nM
2,Cc1ccc(-c2ccc(CCC(=O)O)n2NC(=O)c2cccs2)cc1,inconclusive: 9.3 nM
3,CC12CC(NC(=O)N1CCc1ccccc1)c1ccccc1O2 (configuration not stated),inconclusive: 1.5 nM
4,COc1ccc2[nH]cc(CCN=C3SCC(=O)N3C)c2c1,inactive
5,Cc1ccc(NC(=O)c2cc(N3CCOCC3)nc3ccccc23)cc1,active: 110 nM
6,COc1ccccc1C(=O)NCCNC(=O)c1ccco1,inconclusive: 3.2 nM
7,O=C(NCc1ccc2c(c1)OCO2)C1CC(=O)N(C2CCCC2)C1 (configuration not stated),inconclusive: 3.1 nM
8,Cc1csc2nc3ccccc3c(=O)n12,active: 320 nM
9,CCOC(=O)N1CCN(C(=O)C2CCN(c3ncnc4c3sc3cccc(F)c34)CC2)CC1,active: 18 nM
10,Cn1c(CCN2CCOCC2)nc2cc(NC(=O)COc3ccccc3)ccc21,active: 11 nM
11,Cc1ccc(C(=O)COc2cccc(NC(=O)c3ccco3)c2)cc1,inactive
12,COc1nc2c(C)cccc2cc1-c1noc(-c2ccncc2)n1,inconclusive: 1.2 nM
13,Cc1cc(=O)oc(C)c1C(=O)NCc1ccccn1,inconclusive: 4.9 nM
14,CN1C(=S)SC(C)(C)C1(C)NO (configuration not stated),inconclusive: 5.1 nM
15,Cc1cccc2nc(CNc3ccc(F)cc3)cn12,inconclusive: 1.1 nM
16,CSc1ccc(Cl)c(C(=O)OCC(=O)NCc2ccco2)c1,inactive
17,CCC(=O)Nc1ccc(NC(=O)Cc2ccccc2)cn1,inconclusive: 1.3 nM
18,Clc1ccccc1-c1nc(NCc2cccs2)c2ccccc2n1,inactive
19,O=c1[nH]c2ccccc2nc1NCCN1CCOCC1,inconclusive: 8.8 nM
20,COc1ncc2nc(-c3cn(C)c4ccccc34)c(=O)n(C)c2n1,inconclusive: 5.6 nM
21,O=C(Nc1cccc(F)c1)N1CC[C@@]2(CCCN(C(=O)c3cnccn3)C2)C1,inactive
22,CCN(CC)CC(=O)c1c[nH]c2ccc(C)cc12,inconclusive: 1.4 nM
23,c1ccc(-c2cn3cccnc3n2)cc1,active: 4800 nM

row,Compound,max dye-equivalent concentration
1,O=C(CCc1nc2ccccc2[nH]c1=O)OCC(=O)N1CCc2ccccc21,active: 21 nM
2,CC1(C)CC(=O)C(/C=N/n2cnc3ccccc3c2=O)=C(O)C1,inconclusive: 1.1 nM
3,COCCCn1c(=N)c(C(=O)NCC2CCCO2)cc2c(=O)n3ccccc3nc21 (configuration not stated),active: 21000 nM
4,CN(Cc1ccco1)c1ncncc1-c1ccc2c(c1)OCO2,inactive
5,Cc1cccc(Cc2c(C)nc3nc(SCC(=O)NCc4ccco4)nn3c2C)c1,inactive
6,Cc1cc(NC(=O)CN2CCC(O)(c3cccc(F)c3)CC2)no1,inconclusive: 1.7 nM
7,CCn1cc(C(=O)O)c(=O)c2cnc(N3CCN(C(=O)Nc4cccc5ccccc45)CC3)nc21,inconclusive: 4.3 nM
8,Clc1ccc(-n2nnnc2SCc2c(-c3ccccc3)nc3sccn23)cc1,inactive
9,O=C(NCCCN1CCOCC1)c1cc2cc(Cl)cc(Cl)c2oc1=O,inconclusive: 8 nM
10,N#CCCn1c(=O)c(-c2cc(F)cc(F)c2)nc2cnc(Oc3ccccc3)nc21,inconclusive: 2.2 nM
11,CCCc1cc(C(=O)Cc2ccc(C(=O)OCC)o2)c(O)cc1O,inconclusive: 3.1 nM
12,CCOc1ccc2nc(NC3=NCN(CC4CCCO4)CN3)nc(C)c2c1 (configuration not stated),active: 75 nM
13,O=C1CN(C(=O)OCc2ccccc2)c2ccccc2N1,inconclusive: 2.5 nM
14,O=C(Nc1cccc(NC(=O)c2ccco2)c1)c1ccc2c(c1)OCO2,active: 93 nM
15,O=C(O)c1ccccc1Nc1cccc(C(F)(F)F)c1,inconclusive: 2.6 nM
16,CC[N+](C)(CC)CCC[n+]1c(-c2ccccc2)c2cc(N)ccc2c2ccc(N)cc21,inconclusive: 4.4 nM
17,O=C1C(Cl)=C(Sc2nnc3c4ccccc4c4ccccc4c3n2)C(=O)c2ccccc21,inconclusive: 9.8 nM
18,Cc1nn(Cc2ccccc2Cl)c2sc(C(=O)NCCCn3ccnc3)cc12,active: 13 nM
19,CCc1nnc(NC(=O)CSc2nnc(CSc3nc(C)cc(C)n3)n2CC)s1,inconclusive: 1.1 nM
20,O=C(Nc1cccnc1)c1cc2nc(C3CC3)cc(C(F)(F)F)n2n1,inconclusive: 4.4 nM
21,COc1cccc2c1NC(C(=O)O)C1CC=CC21 (configuration not stated),inconclusive: 6.3 nM
22,Cn1c(=O)[nH]c(=O)c2c1nc(Br)n2CCOc1ccccc1,inconclusive: 2.9 nM
23,CS(=O)(=O)N1CCC2(CCN(c3ccccn3)CC2)CC1,inactive

# Of the compounds above, three contain two or more sulfur atoms.
row,Compound,max dye-equivalent concentration
14,CN1C(=S)SC(C)(C)C1(C)NO (configuration not stated),inconclusive: 5.1 nM
8,Clc1ccc(-n2nnnc2SCc2c(-c3ccccc3)nc3sccn23)cc1,inactive
19,CCc1nnc(NC(=O)CSc2nnc(CSc3nc(C)cc(C)n3)n2CC)s1,inconclusive: 1.1 nM
